The other results are listed elsewhere or left out. Rule as the data show it: active = 2 or more and inactive = the rest. This data set is noisy: repeats of one test often differ as much as different tests do.

This assay concerns Lgr5 (MarsCy1-Lgr5-EGFP, U2OS). Put plainly: cell-surface Lgr5 expression (SCi1 fluorescence, background-subtracted) relative to WT DMSO (fold of DMSO control); higher = more Lgr5 at the plasma membrane. Particulars: U2OS MarsCy1-Lgr5-EGFP stable; treatment time: overnight; library: ActiProbe-5K (TimTec); 25 µM.
`CN(C)S(=O)(=O)c1ccc(-c2cn3cc(Cl)ccc3n2)cc1`: the “cell-surface Lgr5 expression” value is inactive: 1.28.
In the case of `O=S(=O)(Cc1ccccc1)CC1CO1` (stereo not given), the “cell-surface Lgr5 expression” value was inactive: 1.3.
The figure for `Cc1cc(C(F)(F)F)nc(S)n1` is inactive: 1.37.
The figure for `FC(F)(F)COc1ccc(-n2ccnc2)nn1` is inactive: 1.06.
In the case of `CCCNc1nc(Cl)nc(NCCC)n1` it was inactive: 1.08.
With `CCOC(=O)c1scc2c1OCCO2`, the “cell-surface Lgr5 expression” value is inactive: 1.02.
Consider `N#CC1=C(N)SC(N)=C(C#N)C1c1ccc([N+](=O)[O-])s1`, for which the “cell-surface Lgr5 expression” value is inactive: 1.4.
The figure for `OCCNc1nc(N2CCCCC2)nc(N2CCCCC2)n1` is inactive: 1.17; for `N#CC1=C(N2CCCCC2)c2cc3c(n2C1=O)CCCC3` it is inactive: 1.16.
In the case of `C1(=NC(=O)C(/S1)=C1\CCCCC1)N1CC(C)OC(C1)C` (stereo not given) it was inactive: 1.01; in that of `Fc1ccc2c(c1)C1OCCC1C(c1ccco1)N2` (stereo not given), inactive: 1.33; in that of `Cn1ncc([N+](=O)[O-])c1C(=O)O`, inactive: 1.18.
The figure for `NS(=O)(=O)c1ccc2c(c1)C1C=CCC1C(c1cccc3ccccc13)N2` (stereo not given) is inactive: 0.678; for `N=c1[nH]c(-c2ccc3c(c2)OCCO3)cs1` it is inactive: 1.15.
For `CC(C)(C)Sc1cc(C(=O)O)sc1C(=O)O`, the “cell-surface Lgr5 expression” value was inactive: 1.03.
In the case of `Cl.N#CC1=C(O)SC(N)=C2C(=N)n3cccc3C12` (stereo not given), the “cell-surface Lgr5 expression” value was inactive: 1.22.
In the case of `c1ccc(-c2nc(SCC3COc4ccccc4O3)oc2-c2ccccc2)cc1` (stereo not given) it was inactive: 1.03; in that of `CN(C)c1nc(N)nc(CSCCCCCCCCSCc2nc(N)nc(N(C)C)n2)n1`, inactive: 1.09.
Consider `CC1(C)NC(C)(C)/C(=N/O)C(=NO)/C1=N\O`, for which the “cell-surface Lgr5 expression” value was inactive: 1.23.
For the compound `C1=CCC(CN2CCN(Cc3ccco3)CC2)CC1` (stereo not given), the “cell-surface Lgr5 expression” value was inactive: 1.33.
Take `N=C1SCC(=O)N1c1nonc1NC=O`: the “cell-surface Lgr5 expression” value is inactive: 1.09.
In the case of `COc1ccc(-c2nc(-c3ccc(F)cc3)c[n+]3ccc4cc(OC)c(OC)cc4c23)cc1OC` it was inactive: 1.3.
In the case of `O=C(NCCO)C12CC3CC(CC(C3)C1)C2` it was inactive: 1.23; in that of `Nn1c(SCc2ccccc2Br)nnc1C(F)(F)F`, inactive: 0.967; in that of `Cc1ccc2c(c1)C1C(=C(N)O2)C(N)=Cc2ccc(Br)cc21` (stereo not given), inactive: 1.24.
Turning to `Cn1c(-c2ccccc2)c(-c2ccccc2)[nH]c1=S`, the “cell-surface Lgr5 expression” value is inactive: 0.836.
In the case of `c1cc(COc2ccc3c(c2)OCO3)no1` it was inactive: 1.12.
Turning to `COc1nc(N/N=C/c2cc(OC)c(OC)c(OC)c2)nc(N2CCOCC2)n1`, the “cell-surface Lgr5 expression” value is inactive: 1.13.
In the case of `O=S(=O)([O-])c1ccc(-c2nnc(-c3ccccn3)nc2-c2ccc(S(=O)(=O)[O-])o2)o1` it was inactive: 1.22.
The figure for `Nn1c(S)nnc1Cc1ccc2c(c1)OCO2` is inactive: 1.25; for `CCCCCCCCCCn1c(SCCC(C)C)nc2c1c(=O)[nH]c(=O)n2C` it is inactive: 1.1; for `COCc1[nH]nc2c1C1(CCC3(CC1)OCCO3)C(C#N)=C(N)O2` it is inactive: 1.16.
The figure for `O=[N+]([O-])c1ccc(/C=N\Nc2nc3ccccc3s2)s1` is inactive: 1.36; for `Cn1ncc([N+](=O)[O-])c1C(=O)NNC(=S)NC1CCCC1` it is inactive: 1.19; for `CCCCCCCCCCOC[N+](CC)(CC)c1ccccc1.[Cl-]` it is inactive: 1.48.
Take `Cc1nc2c(o1)NC(N)=C(C#N)C21CCCCC1`: the “cell-surface Lgr5 expression” value is inactive: 1.23.
In the case of `O=S1(=O)CCC(/N=C/c2ccc(-c3cccc(C(F)(F)F)c3)o2)C1` (stereo not given) it was inactive: 1.17.
In the case of `CS(=O)(=O)N1CCc2ccccc21` it was inactive: 1.33; in that of `CC(=O)[C@@]12OC1CC1C3CCC4=CC(=O)CCC4(C)C3CCC12C` (stereo not given in full), inactive: 1.22.
The figure for `c1ccc(-c2cc(-c3ccccc3)c3nncn3n2)cc1` is inactive: 1.26.
`COc1ccc(OC)c(/N=C\c2cc(Br)cc(Br)c2O)c1`: the “cell-surface Lgr5 expression” value is inactive: 0.908.
The figure for `O=C(O)CCN1CCN(CCO)CC1` is inactive: 1.09; for `O=[N+]([O-])c1ccc(/C=N\c2ccc(Cl)c([N+](=O)[O-])c2)s1` it is active: 2.64; for `Cl.NC(N)=NN=C(/C=C\c1ccc([N+](=O)[O-])o1)/C=C\c1ccc([N+](=O)[O-])o1` it is inactive: 0.428.
In the case of `CCOC(=O)C1=C(N)n2c(s/c(=C/c3ccco3)c2=O)=C(C(=O)OCC)C1c1ccco1` (stereo not given) it was inactive: 1.16; in that of `Nc1nc(CSc2ncnc3[nH]cnc23)nc(Nc2ccccc2)n1`, inactive: 1.56; in that of `Cc1nn(C)cc1C(=O)CC(=O)C(F)(F)F`, inactive: 0.838.
In the case of `Cc1nnc(NC(=O)C(C)n2nc(C(F)(F)F)c(Cl)c2C)s1` (stereo not given) it was inactive: 1.25; in that of `O=c1[nH]c2ccc(S(=O)(=O)N3CCOCC3)cc2[nH]1`, inactive: 1.1.
In the case of `c1ccc2oc(SCCSc3nc4ccccc4o3)nc2c1`, the “cell-surface Lgr5 expression” value was inactive: 0.93.
`O=S(=O)([O-])c1cc(O)c2c(O)c(/N=N\c3ccccc3)c(S(=O)(=O)[O-])cc2c1.[Na+].[Na+]`: the “cell-surface Lgr5 expression” value was inactive: 1.29.
The figure for `CN(C)CCCNS(=O)(=O)c1ccc(Cl)cc1` is inactive: 1.17; for `CC1(C)CC(=O)C(C(C2=C(O)CC(C)(C)CC2=O)c2ccc([N+](=O)[O-])s2)C(=O)C1` (stereo not given) it is inactive: 1.22.
For `Nc1nnc(-c2ccc(Br)o2)s1`, the “cell-surface Lgr5 expression” value is inactive: 0.918.
The figure for `C=CCn1c(S)nnc1COc1ccccc1` is inactive: 1.1; for `OC1(C(F)(F)F)CC(/C=C\c2ccccc2)=NO1` (stereo not given) it is inactive: 1.36.
The figure for `O=Cc1csc2ccc(Cl)nc12` is inactive: 1.21; for `N#Cc1ccc2c(c1)COC2(c1ccc(F)cc1)c1ccc(F)cc1` it is inactive: 1.12; for `Cc1nn(Cc2c(C)nn(C)c2C)c(C)c1N` it is inactive: 1.31.
The figure for `O=C(O)CCCCCNC(=O)c1cc(=O)[nH]c(=O)[nH]1` is inactive: 1.13; for `COc1ccc(SSc2ccc(OC)cc2[N+](=O)[O-])c([N+](=O)[O-])c1` it is inactive: 1; for `Cc1ccc2c(C)cc(Cl)nc2c1C` it is inactive: 1.34.
Take `COc1ccc(OCC2(N)CC2)cc1.Cl`: the “cell-surface Lgr5 expression” value is inactive: 1.05.
The figure for `Sc1nc2cc(Cc3ccc4[nH]c(S)nc4c3)ccc2[nH]1` is inactive: 1.53; for `COCCOC(=N)/C(C#N)=C/Oc1ccc(F)cc1` it is inactive: 0.949.

Values taken from the supplement of paper PMC4683952.
